This is one part of the list. The data scatter; read single values as rough.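 The cells are a human neuroglioma line carrying a green fluorescent autophagy reporter.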

For the test, the system named is H4 GFP-LC3. In words: ACBP immunofluorescence intensity (scaled to control) (AU (scaled)); higher = more intracellular ACBP/DBI. The settings on record: 6 h.
Take `NC1(C(=O)O)CCCC1` (5 µM): the ACBP immunofluorescence intensity turned out to be 0.948. With `N[C@H](CO)C(=O)O` (5 µM) the figure was 0.618; with `Clc1ccc2nsnc2c1NC1=NCCN1` (5 µM), 0.812; with `O=C(NC1CCN(Cc2ccccc2)CC1)c1ccc(I)cc1` (5 µM), 0.907. With `N[C@@H](COP(=O)(O)O)C(=O)O` (5 µM) the figure was 0.765. To `CN1CCN(CCCN2c3ccccc3Sc3ccc(C(F)(F)F)cc32)CC1` (5 µM) belongs 0.998. Consider `CC[C@H](C)[C@@H]1NC(=O)[C@H](Cc2ccc(O)cc2)NC(=O)[C@@H](N)CSSC[C@@H](C(=O)N2CCC[C@H]2C(=O)N[C@@H](CC(C)C)C(=O)NCC(N)=O)NC(=O)[C@H](CC(N)=O)NC(=O)[C@H](CCC(N)=O)NC1=O` (5 µM), for which the ACBP immunofluorescence intensity is 0.374. To `CC[C@](N)(CCC(=O)O)C(=O)O` (5 µM) belongs 0.998; to `CN1CCN(c2nc3cc(C(F)(F)F)ccc3n3cccc23)CC1` (5 µM), 0.814. With `C[C@]12CCC(=O)C=C1CC[C@@H]1[C@@H]2[C@@H](O)C[C@@]2(C)[C@H]1CC[C@]2(O)C(=O)CO` (5 µM) the figure was 0.543; with `CNCCC(Oc1ccc(C(F)(F)F)cc1)c1ccccc1` (stereo unspecified) (5 µM), 0.947; with `c1ccc2c(CC3=NCCN3)cccc2c1` (5 µM), 0.819.

As to `Nc1c2c(nc3ccccc13)CCCC2O` (stereo unspecified) (5 µM), the ACBP immunofluorescence intensity came to 0.93. To `CS(=O)(=O)Nc1c(O)ccc2c1CCCC2C1=NCCN1` (stereo unspecified) (5 µM) belongs 0.872; to `CCC(=O)N1CCN(c2ccc(-n3c(=O)ccc4cnc5ccc(-c6cnc7ccccc7c6)cc5c43)cc2C(F)(F)F)CC1` (0.3 µM), 0.437.

Turning to `O=C(COc1ccc(C(=O)c2ccccc2)cc1)NC1CCN(Cc2ccccc2)CC1` (5 µM), the ACBP immunofluorescence intensity was 0.922.

Values taken from the supplement of paper PMC11659162.
